Laboratory results: publication PMC2688750
No constants are given. Whether binding was seen depends on the method and setting. Some entries that bind do so weakly or less than the wild type.

Sequences of proteins named here, by UniProt entry; tags and fusion partners are left off.
UniProt P02730: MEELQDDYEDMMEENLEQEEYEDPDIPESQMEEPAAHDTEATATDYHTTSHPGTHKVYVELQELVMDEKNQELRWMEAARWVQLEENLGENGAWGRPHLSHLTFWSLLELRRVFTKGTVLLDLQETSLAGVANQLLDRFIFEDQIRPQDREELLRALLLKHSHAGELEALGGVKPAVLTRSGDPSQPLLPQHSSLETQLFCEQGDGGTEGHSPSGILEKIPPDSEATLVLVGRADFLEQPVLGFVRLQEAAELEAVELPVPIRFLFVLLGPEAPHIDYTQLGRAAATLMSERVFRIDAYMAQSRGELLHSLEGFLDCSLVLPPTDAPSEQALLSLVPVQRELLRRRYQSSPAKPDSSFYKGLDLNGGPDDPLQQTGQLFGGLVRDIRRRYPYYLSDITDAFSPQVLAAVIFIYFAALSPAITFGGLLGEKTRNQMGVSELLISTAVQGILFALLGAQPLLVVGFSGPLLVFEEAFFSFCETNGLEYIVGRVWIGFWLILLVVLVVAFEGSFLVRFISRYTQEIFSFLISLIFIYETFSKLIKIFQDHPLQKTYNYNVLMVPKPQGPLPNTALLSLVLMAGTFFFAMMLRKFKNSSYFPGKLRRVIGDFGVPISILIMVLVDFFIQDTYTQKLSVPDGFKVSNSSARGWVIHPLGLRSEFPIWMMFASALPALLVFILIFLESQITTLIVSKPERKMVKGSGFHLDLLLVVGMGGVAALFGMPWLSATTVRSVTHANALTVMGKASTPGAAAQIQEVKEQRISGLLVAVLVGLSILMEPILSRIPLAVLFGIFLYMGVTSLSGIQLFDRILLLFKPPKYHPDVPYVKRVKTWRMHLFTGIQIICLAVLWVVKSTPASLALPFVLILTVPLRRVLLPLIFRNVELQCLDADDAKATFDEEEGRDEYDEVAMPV

Target: erythrocyte membrane protein band 3 (human (endogenous in erythrocytes)) (UniProt P02730)
Experiment: SDS-PAGE and immunoblot (dimer band that persists on the gel); sucrose gradient fractions of erythrocytes lysed in 1% Triton X-100; 4-12% Bis-Tris gel under reducing conditions; probed with a monoclonal antibody to band 3; AA and CC erythrocytes, DRM and bottom fractions

binding: binds
Substance: erythrocyte membrane protein band 3 (from UniProt P02730 1-911)
